# Laboratory results from the supplement of paper PMC8728848.
# The other results are listed elsewhere or left out.
# How the values were obtained:
# Assay in all cases: glycan array binding signal (z-score within array); higher = stronger binding
# Conditions in all cases: glycan notation: IUPAC condensed, linker removed
# [1] = target: Man(a1-2)Man(a1-3)[Man(a1-2)Man(a1-6)]Man(a1-6)[Man(a1-2)Man(a1-2)Man(a1-3)]Man
# Method in brief: (§1)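 Arrays were curated from the Consortium for Functional Glycomics database, 3228 in total, and kept only where the protein sequence was available. Binding is expressed as a within-array Z-score. This score was averaged across arrays of the same protein sequence at different concentrations or buffers and across linkers, and negative values can be read as non-binding.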
# [2] = target: Man(a1-2)Man(a1-3)[Man(a1-2)Man(a1-6)]Man(a1-6)[Man(a1-2)Man(a1-2)Man(a1-3)]Man(b1-4)GlcNAc(b1-4)GlcNAc
# Method in brief: as §1
# [3] = target: Man(a1-2)Man(a1-3)[Man(a1-6)]Man(a1-6)[Man(a1-2)Man(a1-3)]Man(b1-4)GlcNAc(b1-4)GlcNAc
# Method in brief: as §1
# [4] = target: Man(a1-2)Man(a1-6)[Man(a1-3)]Man(a1-6)[Man(a1-2)Man(a1-2)Man(a1-3)]Man
# Method in brief: as §1
# [5] = target: Man(a1-2)Man(a1-6)[Man(a1-3)]Man(a1-6)[Man(a1-2)Man(a1-2)Man(a1-3)]Man(b1-4)GlcNAc(b1-4)GlcNAc
# Method in brief: as §1
# [6] = target: Man(a1-3)[Man(a1-6)]Man
# Method in brief: as §1
# [7] = target: Man(a1-3)[Man(a1-6)]Man(a1-6)[Man(a1-2)Man(a1-3)]Man(b1-4)GlcNAc(b1-4)GlcNAc
# Method in brief: as §1
# [8] = target: Man(a1-3)[Man(a1-6)]Man(a1-6)[Man(a1-3)]Man
# Method in brief: as §1
# [9] = target: Man(a1-3)[Man(a1-6)]Man(a1-6)[Man(a1-3)]Man(b1-4)GlcNAc(b1-4)GlcNAc
# Method in brief: as §1
# [10] = target: Man(a1-3)[Man(a1-6)]Man(b1-4)GlcNAc(b1-4)GlcNAc
# Method in brief: as §1
# [11] = target: Man(a1-3)[Man(a1-6)]Man(b1-4)GlcNAc(b1-4)[Fuc(a1-6)]GlcNAc
# Method in brief: as §1
# [12] = target: Man(a1-6)Man
# Method in brief: as §1
# [13] = target: Man(b1-4)GlcNAc
# Method in brief: as §1
# [14] = target: MurNAc(b1-4)GlcNAc
# Method in brief: as §1
# [15] = target: Neu5Ac(a2-3)Gal
# Method in brief: as §1
# [16] = target: Neu5Ac(a2-3)Gal(b1-3)GalNAc
# Method in brief: as §1
# [17] = target: Neu5Ac(a2-3)Gal(b1-3)GalNAc(b1-3)Gal(a1-4)Gal(b1-4)Glc
# Method in brief: as §1
# [18] = target: Neu5Ac(a2-3)Gal(b1-3)GalNAc(b1-4)[Neu5Ac(a2-3)]Gal(b1-4)Glc
# Method in brief: as §1
# [19] = target: Neu5Ac(a2-3)Gal(b1-3)GalNAc(b1-4)[Neu5Ac(a2-8)Neu5Ac(a2-3)]Gal(b1-4)Glc
# Method in brief: as §1
# [20] = target: Neu5Ac(a2-3)Gal(b1-3)GalNAc6S
# Method in brief: as §1
# [21] = target: Neu5Ac(a2-3)Gal(b1-3)GlcNAc
# Method in brief: as §1
# [22] = target: Neu5Ac(a2-3)Gal(b1-3)GlcNAc(b1-2)Man
# Method in brief: as §1
# [23] = target: Neu5Ac(a2-3)Gal(b1-3)GlcNAc(b1-2)Man(a1-3)[GlcNAc(b1-4)][Neu5Ac(a2-3)Gal(b1-3)GlcNAc(b1-2)Man(a1-6)]Man(b1-4)GlcNAc(b1-4)GlcNAc
# Method in brief: as §1
# [24] = target: Neu5Ac(a2-3)Gal(b1-3)GlcNAc(b1-2)Man(a1-3)[Neu5Ac(a2-3)Gal(b1-3)GlcNAc(b1-2)Man(a1-6)]Man(b1-4)GlcNAc(b1-4)GlcNAc
# Method in brief: as §1
# [25] = target: Neu5Ac(a2-3)Gal(b1-3)GlcNAc(b1-3)Gal(b1-3)GlcNAc
# Method in brief: as §1
# [26] = target: Neu5Ac(a2-3)Gal(b1-3)GlcNAc(b1-3)Gal(b1-4)GlcNAc
# Method in brief: as §1
# [27] = target: Neu5Ac(a2-3)Gal(b1-3)GlcNAc(b1-3)GalNAc
# Method in brief: as §1
# [28] = target: Neu5Ac(a2-3)Gal(b1-3)GlcNAc(b1-4)Gal(b1-4)Glc
# Method in brief: as §1
# [29] = target: Neu5Ac(a2-3)Gal(b1-3)GlcNAc(b1-6)GalNAc
# Method in brief: as §1
# [30] = target: Neu5Ac(a2-3)Gal(b1-3)GlcNAc6S
# Method in brief: as §1
# [31] = target: Neu5Ac(a2-3)Gal(b1-3)[Fuc(a1-4)]GlcNAc
# Method in brief: as §1
# [32] = target: Neu5Ac(a2-3)Gal(b1-3)[Fuc(a1-4)]GlcNAc(b1-3)Gal(b1-3)[Fuc(a1-4)]GlcNAc
# Method in brief: as §1
# [33] = target: Neu5Ac(a2-3)Gal(b1-3)[Fuc(a1-4)]GlcNAc(b1-3)Gal(b1-4)[Fuc(a1-3)]GlcNAc
# Method in brief: as §1
# [34] = target: Neu5Ac(a2-3)Gal(b1-3)[GlcNAc(b1-6)]GalNAc
# Method in brief: as §1
# [35] = target: Neu5Ac(a2-3)Gal(b1-3)[Neu5Ac(a2-6)]GalNAc
# Method in brief: as §1
# [36] = target: Neu5Ac(a2-3)Gal(b1-3)[Neu5Ac(a2-6)]GlcNAc(b1-3)[Fuc(a1-3)[Gal(b1-4)]GlcNAc(b1-6)]Gal(b1-4)Glc
# Method in brief: as §1
# [37] = target: Neu5Ac(a2-3)Gal(b1-3)]Neu5Ac(a2-3)Gal(b1-4)]GlcNAc
# Method in brief: as §1
# [38] = target: Neu5Ac(a2-3)Gal(b1-4)Glc
# Method in brief: as §1
# [39] = target: Neu5Ac(a2-3)Gal(b1-4)GlcNAc
# Method in brief: as §1
# [40] = target: Neu5Ac(a2-3)Gal(b1-4)GlcNAc(b1-2)Man
# Method in brief: as §1
# [41] = target: Neu5Ac(a2-3)Gal(b1-4)GlcNAc(b1-2)Man(a1-3)[GlcNAc(b1-4)][Neu5Ac(a2-3)Gal(b1-4)GlcNAc(b1-2)Man(a1-6)]Man(b1-4)GlcNAc(b1-4)GlcNAc
# Method in brief: as §1
# [42] = target: Neu5Ac(a2-3)Gal(b1-4)GlcNAc(b1-2)Man(a1-3)[Neu5Ac(a2-3)Gal(b1-4)GlcNAc(b1-2)Man(a1-6)]Man(b1-4)GlcNAc(b1-4)GlcNAc
# Method in brief: as §1
# [43] = target: Neu5Ac(a2-3)Gal(b1-4)GlcNAc(b1-2)Man(a1-3)[Neu5Ac(a2-3)Gal(b1-4)GlcNAc(b1-2)Man(a1-6)]Man(b1-4)GlcNAc(b1-4)[Fuc(a1-6)]GlcNAc
# Method in brief: as §1
# [44] = target: Neu5Ac(a2-3)Gal(b1-4)GlcNAc(b1-2)Man(a1-3)[Neu5Ac(a2-6)Gal(b1-4)GlcNAc(b1-2)Man(a1-6)]Man(b1-4)GlcNAc(b1-4)GlcNAc
# Method in brief: as §1
# [45] = target: Neu5Ac(a2-3)Gal(b1-4)GlcNAc(b1-2)[Neu5Ac(a2-3)Gal(b1-4)GlcNAc(b1-4)]Man(a1-3)[GlcNAc(b1-4)][Neu5Ac(a2-3)Gal(b1-4)GlcNAc(b1-2)[Neu5Ac(a2-3)Gal(b1-4)GlcNAc(b1-6)]Man(a1-6)]Man(b1-4)GlcNAc(b1-4)GlcNAc
# Method in brief: as §1
binder,measurement,setting,value
B3GalT2 (Rattus norvegicus) (protein) LMLQWRRRHCCFAKMSWNAKRSLFRTHLMGVLSLVFLFAMFLFFNHHDWLPGRPGFKENPVTYTFRGFRSTKTETNQSSLRNIWKEVVPQTLRPQTATNSNNTELSPQGVTGLENTLSANGSIYNEKGTGHPNSYHFKYIINEPEKCQEKSPFLILLIAAEPGQIEARRAIRQTWGNETLAPGIQITRIFLLGISIKLNGYLQHAIQEESIQYHDIIQQEYLDTYYNLTIKTLMGMNWVATYCPHTPYVMKTDSDMFVNTEYLIHKLLKPDLPPRHNYFTGYLMRGYAPNRNKDSKWYMPPDLYPSERYPVFCSGTGYVFSGDLAEKIFKVSLGIRRLHLEDVYVGICLAKLRVDPVPPPNEFVFNHWRVSYSSCKYSHLITSHQFQPSELIKYWNHLQQNKHNACVNAAKEKAGRYRHRKLH,glycan array binding signal (z-score),[1],-0.356
same,glycan array binding signal (z-score),[2],-0.337
same,glycan array binding signal (z-score),[3],-0.577
same,glycan array binding signal (z-score),[4],0.362
same,glycan array binding signal (z-score),[5],-0.59
same,glycan array binding signal (z-score),[6],1.52
same,glycan array binding signal (z-score),[7],0.16
same,glycan array binding signal (z-score),[8],-0.373
same,glycan array binding signal (z-score),[9],0.278
same,glycan array binding signal (z-score),[10],-0.053
same,glycan array binding signal (z-score),[11],-1.04
same,glycan array binding signal (z-score),[12],0.301
same,glycan array binding signal (z-score),[13],0.127
same,glycan array binding signal (z-score),[14],0.331
same,glycan array binding signal (z-score),[15],-0.317
same,glycan array binding signal (z-score),[16],0.516
same,glycan array binding signal (z-score),[17],-0.318
same,glycan array binding signal (z-score),[18],0.229
same,glycan array binding signal (z-score),[19],-0.777
same,glycan array binding signal (z-score),[20],1.34
same,glycan array binding signal (z-score),[21],1.27
same,glycan array binding signal (z-score),[22],1.06
same,glycan array binding signal (z-score),[23],0.401
same,glycan array binding signal (z-score),[24],-0.013
same,glycan array binding signal (z-score),[25],-0.47
same,glycan array binding signal (z-score),[26],-0.897
same,glycan array binding signal (z-score),[27],0.242
same,glycan array binding signal (z-score),[28],-0.852
same,glycan array binding signal (z-score),[29],-0.836
same,glycan array binding signal (z-score),[30],-0.478
same,glycan array binding signal (z-score),[31],0.763
same,glycan array binding signal (z-score),[32],0.59
same,glycan array binding signal (z-score),[33],-0.767
same,glycan array binding signal (z-score),[34],0.584
same,glycan array binding signal (z-score),[35],0.042
same,glycan array binding signal (z-score),[36],-1.05
same,glycan array binding signal (z-score),[37],1.02
same,glycan array binding signal (z-score),[38],-0.224
same,glycan array binding signal (z-score),[39],1.9
same,glycan array binding signal (z-score),[40],-0.736
same,glycan array binding signal (z-score),[41],0.483
same,glycan array binding signal (z-score),[42],1.88
same,glycan array binding signal (z-score),[43],0.417
same,glycan array binding signal (z-score),[44],0.64
same,glycan array binding signal (z-score),[45],1.83

# 2 entries picked at random from those above, as already listed:
binder,measurement,setting,value
B3GalT2 (Rattus norvegicus) (protein) LMLQWRRRHCCFAKMSWNAKRSLFRTHLMGVLSLVFLFAMFLFFNHHDWLPGRPGFKENPVTYTFRGFRSTKTETNQSSLRNIWKEVVPQTLRPQTATNSNNTELSPQGVTGLENTLSANGSIYNEKGTGHPNSYHFKYIINEPEKCQEKSPFLILLIAAEPGQIEARRAIRQTWGNETLAPGIQITRIFLLGISIKLNGYLQHAIQEESIQYHDIIQQEYLDTYYNLTIKTLMGMNWVATYCPHTPYVMKTDSDMFVNTEYLIHKLLKPDLPPRHNYFTGYLMRGYAPNRNKDSKWYMPPDLYPSERYPVFCSGTGYVFSGDLAEKIFKVSLGIRRLHLEDVYVGICLAKLRVDPVPPPNEFVFNHWRVSYSSCKYSHLITSHQFQPSELIKYWNHLQQNKHNACVNAAKEKAGRYRHRKLH,glycan array binding signal (z-score),[21],1.27
same,glycan array binding signal (z-score),[16],0.516
